From PubChem BioAssay AID493014 (National Center for Advancing Translational Sciences (NCATS), 2011)
Some of the results follow. Shown are side measurements of this screen, not its main read-out; they come without a call. Most of these compounds were active or inconclusive in the main read-out, so they are no random draw. Words in brackets tell the shape of the fitted curve; partial curves, single points and poor fits give uncertain potencies.

Assay: qHTS Assay to Find Inhibitors of Chronic Active B-Cell Receptor Signaling
Settings: ABC-DLBCL IkBa-CBG/CBR reporter, luminescence ratio (green luciferase fused to IkBa over red control in TMD8 lymphoma cells), 4 h
How it was run: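 TMD8 ABC-DLBCL cells carrying doxycycline-inducible green luciferase fused to IkappaBalpha plus unfused red luciferase were exposed to compounds (up to 46 uM) for 4 hrs at 37C. Activity came from the overlap-corrected green/red luminescence ratio.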

[1] = measured here: CBR red luminescence, cell number
[2] = measured here: IkBa-CBG green luminescence

COc1cnn(-c2ccccc2)c(=O)c1OC
AC50 [1]: 2 µM [rising, full curve, poor fit]

COC(=O)c1ccc(Cn2cc(C(F)(F)F)cc([N+](=O)[O-])c2=O)cc1
AC50 [1]: 0.501 µM [falling, full curve, poor fit]

Cn1c(=O)c2c(ncn2Cc2ccccc2)n(C)c1=O
AC50 [1]: 3.26 µM [falling, full curve, poor fit]

O=C(CN1CCCCC1)Nc1nnc(-c2ccccc2)s1
AC50 [1]: 35.5 µM [falling, single point]

CC(C)[C@@H](N)C(=O)NC[C@H]1O[C@@H](n2cnc3c(N)ncnc32)[C@H](O)[C@@H]1O
AC50 [1]: 20.6 µM [rising, partial curve, poor fit]

COc1ccccc1NS(=O)(=O)c1cccc(C(=O)NNC(=O)c2ccc(=O)[nH]c2)c1
AC50 [2]: 18.4 µM [falling, partial curve, poor fit]

O=C(N/N=C/c1ccc(-c2cccc([N+](=O)[O-])c2)o1)c1ccccc1O
AC50 [1]: 7.94 µM [falling, partial curve]

NC(=O)c1cc2ccc(O)cc2oc1=NCc1ccccc1
AC50 [1]: 32.6 µM [falling, single point]

Cc1ccc(C)c(CSCc2nc3ccccc3[nH]2)c1
AC50 [1]: 6.31 µM [rising, single point]

COC(=O)c1cc(NC(=O)COC(=O)CN2C(=O)C3CC=CCC3C2=O)cc(C(=O)OC)c1 (configuration not stated)
AC50 [1]: 2.06 µM [rising, full curve, poor fit]

Cc1cccc(NC(=O)C(=O)NCC2CCCO2)c1 (configuration not stated)
AC50 [1]: 3.55 µM [falling, full curve, poor fit]

CCOc1ccc(-n2c(=S)sc3c(=O)[nH]c(SCC(=O)N4CCC(C)CC4)nc32)cc1
AC50 [1]: 29.1 µM [falling, single point]

COc1ccccc1CC(=O)N(CCC1=CCCCC1)c1c(N)n(Cc2ccccc2)c(=O)[nH]c1=O
AC50 [1]: 16.4 µM [falling, partial curve, poor fit]

N/C(=N\OC(=O)CCCOc1ccccc1)c1ccccc1
AC50 [1]: 4.11 µM [rising, full curve]

CC(C)(C)C(=O)c1sc(Nc2ccccc2)nc1N
AC50 [1]: 23.1 µM [falling, single point]

Cc1ccc(N2C(=O)NC3(CCCCC3)C2=O)cc1
AC50 [1]: 11.2 µM [rising, partial curve, poor fit]

O=C(CN1C(=O)c2ccccc2S1(=O)=O)N1CCN(c2ccccc2)CC1
AC50 [1]: 32.6 µM [falling, single point]

C[C@@H]1CN([C@H](C)CO)C(=O)Cc2cc(NS(=O)(=O)c3ccc(Cl)cc3)ccc2O[C@H]1CN(C)Cc1ccc(C(F)(F)F)cc1
AC50 [1]: 11.6 µM [falling, partial curve, poor fit]

Cc1ccc(NC(=O)c2ccc(NCCN)c([N+](=O)[O-])c2)cc1Cl
AC50 [1]: 14.6 µM [falling, partial curve, poor fit]

O=C1CSC(c2ccccc2F)N1 (configuration not stated)
AC50 [1]: 35.5 µM [falling, partial curve, poor fit]

CC(C)CCn1c(SCC#N)nc2c(sc3ccccc32)c1=O
AC50 [1]: 0.651 µM [falling, partial curve, poor fit]

O=C(Cc1ccccc1)Nc1cc2c(cc1Cl)OCCCO2
AC50 [1]: 12.6 µM [rising, single point]

Cc1ccc(CSC2=NCCN2S(=O)(=O)c2ccccc2)cc1
AC50 [1]: 35.5 µM [rising, single point]

Nc1c(C(O)(C(F)(F)F)C(F)(F)F)ccc2ccccc12
AC50 [1]: 0.562 µM [falling, full curve]

c1ccc(-c2[nH]ncc2-c2nc3ccccc3[nH]2)cc1
AC50 [1]: 29.1 µM [falling, single point]

CC#CC[N+](C)(C)CCCCCCCCCC
AC50 [1]: 4.47 µM [falling, full curve]

COc1ccc(C2C(=O)N(C3CCCCCC3)CC(=O)N2Cc2ccc(C)cc2)cc1OC (configuration not stated)
AC50 [1]: 0.562 µM [rising, full curve, poor fit]

CC1CCCC(C)N1C(=O)CSc1nc2ccccc2c(=O)[nH]1 (configuration not stated)
AC50 [1]: 12.6 µM [falling, single point]
AC50 [2]: 15.8 µM [rising, partial curve, poor fit]

COc1ccccc1C1CCN(Cc2ccc(C)cc2)CC1
AC50 [1]: 11.2 µM [rising, partial curve]

CN1C(=O)c2ccccc2Sc2ccc(NC(=O)COc3ccc(F)cc3)cc21
AC50 [1]: 8.91 µM [falling, partial curve]

OC(COc1ccc(Cl)c2ccccc12)CN1CCN(c2ccccn2)CC1 (configuration not stated)
AC50 [1]: 17.8 µM [falling, single point]

COCCCNC(=O)C(=O)NC1CCCCC1C (configuration not stated)
AC50 [1]: 35.5 µM [falling, single point]

Oc1c(-c2cc(-c3ccco3)[nH]n2)ccc2ccccc12
AC50 [1]: 10.3 µM [falling, partial curve, poor fit]

CC(=O)N1CCc2c(sc(NC(=O)CN3C(=O)c4ccccc4C3=O)c2C(N)=O)C1
AC50 [1]: 0.891 µM [falling, full curve, poor fit]

COc1cccc(N/C(N)=N/c2nc(C(F)(F)F)cc(=O)[nH]2)c1
AC50 [1]: 2.91 µM [falling, full curve]

COCCn1c(SCc2csc(-c3ccccc3)n2)nc2ccccc21
AC50 [1]: 29.1 µM [falling, single point]

COc1cc(OC)cc(C(=O)O/N=C(\N)c2cccc(C)c2)c1
AC50 [1]: 20 µM [rising, partial curve, poor fit]

CC(C)C(=O)N=c1sc2cccc(F)c2n1C
AC50 [1]: 7.94 µM [rising, partial curve, poor fit]

NC(=S)Cc1nc2n(n1)Cc1ccccc1-2
AC50 [1]: 9.2 µM [falling, partial curve]
AC50 [2]: 2.91 µM [rising, partial curve]

Clc1ccccc1-c1nnc2sc(-c3ccc(Br)o3)nn12
AC50 [1]: 17.8 µM [falling, partial curve, poor fit]

C=CCn1cccc(C(=O)Nc2ccc(N(C)C)cc2)c1=O
AC50 [1]: 35.5 µM [falling, single point]

Clc1ccccc1CN1CCN(c2ncccn2)CC1
AC50 [1]: 14.1 µM [rising, single point]

COc1ccc(C(c2nnnn2C2CCCC2)N2CCc3ccccc3C2)cc1OC (configuration not stated)
AC50 [1]: 12.6 µM [falling, single point]

N#Cc1c[nH]n2c(=O)c3c(nc12)CCCC3
AC50 [1]: 4.47 µM [falling, partial curve, poor fit]

CN1CCN(S(=O)(=O)c2ccc(NC(=O)C3CCCO3)cc2)CC1 (configuration not stated)
AC50 [1]: 23.1 µM [rising, single point]

CC1CCc2nc(/C(C#N)=C/c3ccncc3)sc2C1 (configuration not stated)
AC50 [1]: 10 µM [rising, partial curve]

C/C(=N/NC(=O)c1ccoc1C)c1ccc(NC(=O)C2CCCC2)cc1
AC50 [1]: 6.51 µM [falling, partial curve]

CN(CC(=O)Nc1ccc(Cl)cc1)C(=O)c1cccc(S(=O)(=O)N2CCN(Cc3ccccc3)CC2)c1
AC50 [1]: 29.1 µM [falling, single point]

CCOC(=O)c1nn(-c2ccc(Cl)cc2)c(C)cc1=O
AC50 [1]: 15.8 µM [rising, single point]

O=C(NN=C1C2CC3CC1CC(Cl)(C3)C2)c1cccs1
AC50 [1]: 35.5 µM [falling, partial curve, poor fit]

O=C(CCCOc1ccc(Cl)cc1Cl)Nc1ccc(O)cc1C(=O)O
AC50 [1]: 0.355 µM [rising, partial curve, poor fit]

C=CCOC(=O)C1=C(C)NC(SCC(=O)Nc2nccs2)=C(C#N)C1c1ccc(Cl)cc1 (configuration not stated)
AC50 [1]: 35.5 µM [falling, single point]
AC50 [2]: 12.6 µM [rising, partial curve, poor fit]

CSc1ccc(CNc2ccc(Cl)cc2)cc1
AC50 [1]: 2.51 µM [rising, partial curve, poor fit]

COc1ccc(-c2cn(-c3ccc(C)cc3)c(=O)n2CC(=O)Nc2cccc(F)c2)cc1
AC50 [1]: 14.6 µM [rising, partial curve, poor fit]

Cc1nc(C)c2c(c1C(F)(F)F)-c1ccccc1C2(F)F
AC50 [1]: 29.1 µM [falling, partial curve, poor fit]

CN(C)Cc1c(C(=O)Nc2ccccc2)[nH]c2ccccc12
AC50 [1]: 16.4 µM [falling, partial curve, poor fit]

CCOC(=O)NNC(=O)c1[nH]c2ccc(Br)cc2c1-c1ccccc1
AC50 [1]: 25.1 µM [falling, single point]

CC12CC3CC(C)(C1)CC(Nc1nc(N4CCOCC4)nc4ccccc14)(C3)C2
AC50 [1]: 0.501 µM [rising, full curve, poor fit]

COc1ccc(C(=O)NC(NC(=O)c2ccc(OC)c(OC)c2)c2ccccc2F)cc1OC
AC50 [1]: 16.4 µM [rising, partial curve, poor fit]

CC(=N/O)/C(C)=N\NC(=O)c1ccccn1
AC50 [1]: 20 µM [falling, single point]

N#CC1=C(N)SC(N)=C(C#N)C1Cc1ccccc1
AC50 [1]: 17.8 µM [falling, partial curve, poor fit]

CCOC(=O)Cn1c(=N)n(CCOc2ccc3ccccc3c2)c2ccccc21
AC50 [1]: 29.1 µM [falling, single point]

COc1cc(NC(=O)CN(C)S(=O)(=O)c2ccc(C)cc2)cc(OC)c1
AC50 [1]: 0.00411 µM [rising, full curve, poor fit]

COc1ccc(NC(=O)Nc2ccc(F)c(F)c2)c(OC)c1
AC50 [1]: 3.98 µM [rising, partial curve, poor fit]
